The record followed here is publication PMC8202955, “The nonreceptor tyrosine kinase SRMS inhibits autophagy and promotes tumor growth by phosphorylating the scaffolding protein FKBP51” (PLoS Biology, 2021).

The target in the experiment is T1, HisMax-FKBP51 Y54F (UniProt Q13451).
T1 sequence: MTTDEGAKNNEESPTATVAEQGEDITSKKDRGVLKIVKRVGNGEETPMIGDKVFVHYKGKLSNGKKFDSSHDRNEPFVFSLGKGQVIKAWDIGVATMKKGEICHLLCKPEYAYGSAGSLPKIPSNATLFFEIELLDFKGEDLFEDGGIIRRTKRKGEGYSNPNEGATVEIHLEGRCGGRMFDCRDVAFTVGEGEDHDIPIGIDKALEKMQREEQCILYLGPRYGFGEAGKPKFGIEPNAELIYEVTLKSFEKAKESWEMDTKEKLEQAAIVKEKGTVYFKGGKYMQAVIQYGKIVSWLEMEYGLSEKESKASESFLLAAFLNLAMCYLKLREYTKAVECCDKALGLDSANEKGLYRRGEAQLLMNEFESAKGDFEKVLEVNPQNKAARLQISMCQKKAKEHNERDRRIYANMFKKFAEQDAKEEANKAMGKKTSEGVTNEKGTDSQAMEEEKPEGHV
Kind of experiment: co-IP; FKBP51(Y54F) or WT FKBP51 transfected in 293FT cells; IP by anti-Xpress, western blot.

These are yes or no findings as the source states them, for the method shown. Binding seen in cells or lysates may run through a third protein. Binding calls can cover weak binding; strength is not graded here. Tags and fused reporters may be left off the sequences shown.

PHLPP (in 293FT cells, Fig 4G) (enzyme): the binding entry is recorded as “binds”.
